Data taken from the supplement of paper PMC12819154, “High-throughput peptide-centric local stability assay extends protein–ligand identification to membrane proteins, tissues and bacteria” (Nature Structural & Molecular Biology, 2025).
This is one part of the list. Most values lie at the level of the controls, where differences are scatter.

By UniProt entry, the sequences of proteins in these tests, tags left out. Where a name states a change or a piece, a line headed by the entry shows the natural chain unless it says otherwise.
UniProt Q96KC8: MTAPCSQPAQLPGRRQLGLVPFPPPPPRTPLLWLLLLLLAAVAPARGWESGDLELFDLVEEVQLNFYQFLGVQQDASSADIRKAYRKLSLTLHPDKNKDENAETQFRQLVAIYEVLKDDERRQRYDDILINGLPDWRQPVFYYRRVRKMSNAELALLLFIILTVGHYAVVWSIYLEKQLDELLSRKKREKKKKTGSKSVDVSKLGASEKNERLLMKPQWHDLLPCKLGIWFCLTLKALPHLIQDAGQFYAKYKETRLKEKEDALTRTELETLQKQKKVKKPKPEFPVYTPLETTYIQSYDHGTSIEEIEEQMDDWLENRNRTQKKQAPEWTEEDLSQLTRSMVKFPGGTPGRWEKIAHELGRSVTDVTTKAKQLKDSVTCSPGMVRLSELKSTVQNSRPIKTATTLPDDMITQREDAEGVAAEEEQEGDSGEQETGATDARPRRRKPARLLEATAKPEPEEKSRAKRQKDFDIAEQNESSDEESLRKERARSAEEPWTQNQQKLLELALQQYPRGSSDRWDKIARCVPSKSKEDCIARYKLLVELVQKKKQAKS
UniProt Q96QZ7: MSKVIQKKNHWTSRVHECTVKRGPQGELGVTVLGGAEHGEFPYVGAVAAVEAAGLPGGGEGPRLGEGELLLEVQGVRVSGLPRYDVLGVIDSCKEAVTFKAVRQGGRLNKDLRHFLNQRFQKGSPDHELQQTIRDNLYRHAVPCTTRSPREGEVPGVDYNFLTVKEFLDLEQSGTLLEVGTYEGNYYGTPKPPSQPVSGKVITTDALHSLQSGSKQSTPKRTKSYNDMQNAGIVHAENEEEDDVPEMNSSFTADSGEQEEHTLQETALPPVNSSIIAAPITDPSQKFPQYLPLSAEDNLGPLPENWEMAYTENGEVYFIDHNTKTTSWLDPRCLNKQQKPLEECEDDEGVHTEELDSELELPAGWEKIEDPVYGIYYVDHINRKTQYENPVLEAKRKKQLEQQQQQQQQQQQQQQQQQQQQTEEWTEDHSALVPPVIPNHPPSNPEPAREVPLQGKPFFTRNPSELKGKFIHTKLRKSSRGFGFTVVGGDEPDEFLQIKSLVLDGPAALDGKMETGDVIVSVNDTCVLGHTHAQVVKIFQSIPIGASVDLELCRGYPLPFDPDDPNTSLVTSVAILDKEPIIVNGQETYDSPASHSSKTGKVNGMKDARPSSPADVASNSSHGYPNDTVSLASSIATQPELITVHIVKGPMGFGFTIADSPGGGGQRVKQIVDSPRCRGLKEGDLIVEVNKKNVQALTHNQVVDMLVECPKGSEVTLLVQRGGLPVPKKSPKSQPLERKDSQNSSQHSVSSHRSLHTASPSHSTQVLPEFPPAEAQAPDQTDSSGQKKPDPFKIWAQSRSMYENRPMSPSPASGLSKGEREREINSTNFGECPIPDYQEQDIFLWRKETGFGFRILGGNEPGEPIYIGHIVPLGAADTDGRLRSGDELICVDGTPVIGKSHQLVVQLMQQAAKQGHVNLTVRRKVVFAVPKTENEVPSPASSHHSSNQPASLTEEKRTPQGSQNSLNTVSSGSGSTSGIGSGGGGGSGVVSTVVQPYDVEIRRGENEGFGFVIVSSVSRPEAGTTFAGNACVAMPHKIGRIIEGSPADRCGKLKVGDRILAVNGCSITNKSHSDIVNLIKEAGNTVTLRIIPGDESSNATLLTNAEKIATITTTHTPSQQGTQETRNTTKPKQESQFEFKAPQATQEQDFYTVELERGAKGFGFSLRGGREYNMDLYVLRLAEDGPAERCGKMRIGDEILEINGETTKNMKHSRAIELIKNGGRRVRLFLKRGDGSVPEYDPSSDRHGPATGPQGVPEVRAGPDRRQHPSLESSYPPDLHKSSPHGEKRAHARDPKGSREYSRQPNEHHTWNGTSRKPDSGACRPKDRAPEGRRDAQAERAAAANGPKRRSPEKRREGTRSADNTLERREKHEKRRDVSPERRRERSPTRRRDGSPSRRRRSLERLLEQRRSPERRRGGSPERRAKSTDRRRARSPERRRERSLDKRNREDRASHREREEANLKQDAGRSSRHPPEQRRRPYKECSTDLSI
UniProt Q96IW7: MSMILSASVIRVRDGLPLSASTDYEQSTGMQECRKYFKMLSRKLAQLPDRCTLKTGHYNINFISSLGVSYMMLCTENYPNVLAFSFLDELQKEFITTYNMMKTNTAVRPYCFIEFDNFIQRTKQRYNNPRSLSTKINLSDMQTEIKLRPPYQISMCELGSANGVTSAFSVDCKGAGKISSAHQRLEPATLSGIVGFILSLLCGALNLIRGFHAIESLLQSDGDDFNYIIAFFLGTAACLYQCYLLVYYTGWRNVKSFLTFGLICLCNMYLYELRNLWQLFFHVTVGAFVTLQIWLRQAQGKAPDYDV
UniProt Q96IZ7: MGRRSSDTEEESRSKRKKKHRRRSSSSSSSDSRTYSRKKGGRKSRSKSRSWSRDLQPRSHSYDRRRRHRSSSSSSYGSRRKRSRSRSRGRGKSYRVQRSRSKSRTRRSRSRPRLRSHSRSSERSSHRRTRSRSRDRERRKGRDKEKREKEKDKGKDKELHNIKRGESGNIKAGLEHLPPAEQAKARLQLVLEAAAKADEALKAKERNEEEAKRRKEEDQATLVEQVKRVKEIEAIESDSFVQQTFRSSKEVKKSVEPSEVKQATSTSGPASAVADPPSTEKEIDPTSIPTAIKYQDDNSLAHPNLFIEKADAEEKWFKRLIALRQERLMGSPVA
UniProt Q96IY1: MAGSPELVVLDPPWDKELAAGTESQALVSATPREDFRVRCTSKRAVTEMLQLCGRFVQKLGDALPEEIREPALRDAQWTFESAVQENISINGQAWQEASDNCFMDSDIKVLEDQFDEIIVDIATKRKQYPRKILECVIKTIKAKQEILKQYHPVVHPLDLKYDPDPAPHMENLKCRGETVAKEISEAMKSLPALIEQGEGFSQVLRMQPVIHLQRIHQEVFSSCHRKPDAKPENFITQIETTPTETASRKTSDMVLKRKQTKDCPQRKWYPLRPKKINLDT
UniProt Q96HY6: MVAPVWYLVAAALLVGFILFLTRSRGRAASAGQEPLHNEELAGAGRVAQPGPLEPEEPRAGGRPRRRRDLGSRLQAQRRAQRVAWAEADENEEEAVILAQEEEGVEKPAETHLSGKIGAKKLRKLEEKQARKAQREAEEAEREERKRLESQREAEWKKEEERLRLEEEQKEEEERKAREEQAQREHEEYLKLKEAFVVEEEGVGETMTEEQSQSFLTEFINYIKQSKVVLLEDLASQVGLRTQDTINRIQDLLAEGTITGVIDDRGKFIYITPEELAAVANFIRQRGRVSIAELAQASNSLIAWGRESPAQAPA
UniProt Q96GU1: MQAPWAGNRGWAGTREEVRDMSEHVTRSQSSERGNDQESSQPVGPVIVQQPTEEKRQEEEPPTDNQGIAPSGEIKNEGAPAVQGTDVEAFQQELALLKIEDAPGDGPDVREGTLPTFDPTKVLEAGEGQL
UniProt Q96S38: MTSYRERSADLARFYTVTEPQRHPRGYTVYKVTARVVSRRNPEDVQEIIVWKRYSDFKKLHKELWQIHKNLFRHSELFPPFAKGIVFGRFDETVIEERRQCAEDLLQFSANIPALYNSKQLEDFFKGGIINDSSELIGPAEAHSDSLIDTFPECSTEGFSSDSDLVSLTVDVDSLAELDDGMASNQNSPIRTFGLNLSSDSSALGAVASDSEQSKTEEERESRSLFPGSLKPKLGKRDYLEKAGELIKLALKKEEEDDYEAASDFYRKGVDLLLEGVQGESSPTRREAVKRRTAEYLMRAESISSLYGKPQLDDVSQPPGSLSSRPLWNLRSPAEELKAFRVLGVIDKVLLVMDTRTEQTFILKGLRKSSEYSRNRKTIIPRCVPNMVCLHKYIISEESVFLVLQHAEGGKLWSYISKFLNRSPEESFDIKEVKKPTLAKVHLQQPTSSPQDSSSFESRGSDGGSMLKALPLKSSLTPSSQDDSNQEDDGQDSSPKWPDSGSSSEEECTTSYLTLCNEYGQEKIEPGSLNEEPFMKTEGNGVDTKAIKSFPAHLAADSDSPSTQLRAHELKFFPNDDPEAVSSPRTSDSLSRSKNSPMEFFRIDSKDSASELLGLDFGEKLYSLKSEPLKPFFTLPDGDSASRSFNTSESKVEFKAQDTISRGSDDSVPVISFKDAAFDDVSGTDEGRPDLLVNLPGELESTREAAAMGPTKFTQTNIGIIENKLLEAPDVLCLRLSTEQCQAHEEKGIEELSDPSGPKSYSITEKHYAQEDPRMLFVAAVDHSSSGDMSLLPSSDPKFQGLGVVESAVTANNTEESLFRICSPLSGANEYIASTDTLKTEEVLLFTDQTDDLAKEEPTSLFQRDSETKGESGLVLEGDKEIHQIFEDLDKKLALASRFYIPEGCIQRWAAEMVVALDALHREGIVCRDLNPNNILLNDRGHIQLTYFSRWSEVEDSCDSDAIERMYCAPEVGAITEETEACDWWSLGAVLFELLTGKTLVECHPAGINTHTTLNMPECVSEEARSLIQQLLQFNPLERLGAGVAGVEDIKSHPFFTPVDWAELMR
UniProt Q96SI9: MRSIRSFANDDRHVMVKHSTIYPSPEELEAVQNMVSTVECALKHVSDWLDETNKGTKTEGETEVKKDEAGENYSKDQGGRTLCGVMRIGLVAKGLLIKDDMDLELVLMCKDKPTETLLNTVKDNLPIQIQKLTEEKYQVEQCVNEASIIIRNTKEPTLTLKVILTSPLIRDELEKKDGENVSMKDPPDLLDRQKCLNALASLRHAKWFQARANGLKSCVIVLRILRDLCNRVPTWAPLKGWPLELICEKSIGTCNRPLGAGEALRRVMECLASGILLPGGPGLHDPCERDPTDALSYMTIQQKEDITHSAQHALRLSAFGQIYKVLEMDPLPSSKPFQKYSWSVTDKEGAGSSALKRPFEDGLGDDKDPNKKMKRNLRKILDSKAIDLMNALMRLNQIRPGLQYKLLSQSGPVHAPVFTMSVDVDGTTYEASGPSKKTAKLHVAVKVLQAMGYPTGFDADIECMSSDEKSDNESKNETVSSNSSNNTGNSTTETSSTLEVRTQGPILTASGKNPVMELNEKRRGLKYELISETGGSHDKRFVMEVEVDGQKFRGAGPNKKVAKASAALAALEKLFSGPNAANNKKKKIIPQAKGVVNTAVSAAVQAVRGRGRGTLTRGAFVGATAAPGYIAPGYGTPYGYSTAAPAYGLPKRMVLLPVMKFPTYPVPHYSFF
UniProt Q99426: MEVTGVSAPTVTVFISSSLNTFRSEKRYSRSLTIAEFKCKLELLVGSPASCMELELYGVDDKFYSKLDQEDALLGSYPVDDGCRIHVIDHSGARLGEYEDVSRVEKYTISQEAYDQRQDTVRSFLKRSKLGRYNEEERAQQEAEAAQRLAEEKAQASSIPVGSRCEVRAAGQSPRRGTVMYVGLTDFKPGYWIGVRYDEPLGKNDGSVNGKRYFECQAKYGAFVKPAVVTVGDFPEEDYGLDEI
UniProt Q96MK2: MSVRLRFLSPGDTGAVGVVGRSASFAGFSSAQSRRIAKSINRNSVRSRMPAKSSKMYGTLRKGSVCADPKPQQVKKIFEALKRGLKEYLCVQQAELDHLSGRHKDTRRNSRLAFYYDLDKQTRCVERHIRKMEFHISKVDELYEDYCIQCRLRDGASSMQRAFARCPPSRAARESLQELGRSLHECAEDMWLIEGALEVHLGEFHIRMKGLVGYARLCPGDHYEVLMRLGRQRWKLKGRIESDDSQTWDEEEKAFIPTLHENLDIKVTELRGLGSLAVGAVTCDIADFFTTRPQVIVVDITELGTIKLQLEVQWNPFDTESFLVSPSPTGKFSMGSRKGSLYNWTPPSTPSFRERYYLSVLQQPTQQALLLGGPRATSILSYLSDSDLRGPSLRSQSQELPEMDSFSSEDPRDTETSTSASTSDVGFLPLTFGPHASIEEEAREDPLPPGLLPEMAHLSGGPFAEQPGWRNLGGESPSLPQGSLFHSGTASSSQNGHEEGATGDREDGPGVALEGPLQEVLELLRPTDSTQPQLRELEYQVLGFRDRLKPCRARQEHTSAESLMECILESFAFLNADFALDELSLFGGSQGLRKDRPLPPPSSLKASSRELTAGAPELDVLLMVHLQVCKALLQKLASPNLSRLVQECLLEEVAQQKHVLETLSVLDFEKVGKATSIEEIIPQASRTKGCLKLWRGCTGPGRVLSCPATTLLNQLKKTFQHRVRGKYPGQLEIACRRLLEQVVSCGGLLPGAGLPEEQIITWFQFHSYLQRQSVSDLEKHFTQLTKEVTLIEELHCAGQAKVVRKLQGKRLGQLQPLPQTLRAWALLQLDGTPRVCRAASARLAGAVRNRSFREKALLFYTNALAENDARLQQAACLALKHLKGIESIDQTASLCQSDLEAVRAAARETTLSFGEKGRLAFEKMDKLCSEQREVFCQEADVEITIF
UniProt Q96H20: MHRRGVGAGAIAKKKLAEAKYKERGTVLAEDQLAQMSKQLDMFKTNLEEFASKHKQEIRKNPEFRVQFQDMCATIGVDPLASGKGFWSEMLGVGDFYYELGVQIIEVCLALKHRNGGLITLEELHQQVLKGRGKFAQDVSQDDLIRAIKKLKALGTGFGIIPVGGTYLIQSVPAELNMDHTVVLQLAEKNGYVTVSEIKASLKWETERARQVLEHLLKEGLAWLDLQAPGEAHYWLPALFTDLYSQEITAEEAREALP

Each target was assayed with CN[C@@H]1C[C@H]2O[C@@](C)([C@@H]1OC)n1c3ccccc3c3c4c(c5c6ccccc6n2c5c31)C(=O)NC4 [staurosporine] (assay: log2 fold change of tryptic peptide abundance, ligand vs vehicle (limited proteolysis) (log2 ratio); higher = more trypsin-susceptible (destabilized)). Settings: ligand concentration: 20 uM; sample: K562 cleared lysate; digestion: 4 min, 22 C (HT-PELSA RT4min, Orbitrap Astral).

Target	log2 fold change
LRCH3 (peptide sequence: WSGNEPTDEFSDLPLR, peptide start residue: 323) (UniProt Q96II8)	-0.704
UniProt Q96JS3 (peptide sequence: TVAHLNTLK, peptide start residue: 307)	0.466
ZFR (peptide sequence: RMEEEQHHWDDRR, peptide start residue: 670) (UniProt Q96KR1)	-0.295
AGAP3 (peptide sequence: GADLDREK, peptide start residue: 344) (UniProt Q96P47)	0.424
ZC3H10 (peptide sequence: GGGGTGGGSTGSVLPGRR, peptide start residue: 169) (UniProt Q96K80)	-0.178
DNAJC1 (peptide sequence: ALPHLIQDAGQFYAK, peptide start residue: 237) (UniProt Q96KC8)	0.662
MAGI1 (peptide sequence: SSPHGEKR, peptide start residue: 1282) (UniProt Q96QZ7)	1.04
FAM193B (peptide sequence: AQLAAEALK, peptide start residue: 510) (UniProt Q96PV7)	-0.193
SEC22A (peptide sequence: SMILSASVIR, peptide start residue: 2) (UniProt Q96IW7)	-0.11
RSRC1 (peptide sequence: LQLVLEAAAK, peptide start residue: 187) (UniProt Q96IZ7)	-0.142
NSL1 (peptide sequence: IHQEVFSSCHR, peptide start residue: 216) (UniProt Q96IY1)	0.242
NEURL4 (peptide sequence: TALRPHATDDFNHGVVLSSR, peptide start residue: 539) (UniProt Q96JN8)	-0.438
TP53RK (peptide sequence: FLSGLELVK, peptide start residue: 32) (UniProt Q96S44)	0.32
DDRGK1 (peptide sequence: EHEEYLK, peptide start residue: 185) (UniProt Q96HY6)	0.555
UniProt Q96Q04 (peptide sequence: AAPVPVVVSSADADAARPLR, peptide start residue: 1308)	0.00188
NUDCD1 (peptide sequence: VKRPLLDPR, peptide start residue: 11) (UniProt Q96RS6)	0.464
TONSL (peptide sequence: SGNVLEEAK, peptide start residue: 383) (UniProt Q96HA7)	-0.381
ADO (peptide sequence: AEDLNIAPR, peptide start residue: 63) (UniProt Q96SZ5)	-0.106
MBOAT7 (peptide sequence: KAASQPTSLAPEK, peptide start residue: 456) (UniProt Q96N66)	-0.2
UniProt Q96PX1 (peptide sequence: YQANNCPICR, peptide start residue: 308)	-0.00674
PAGE5 (peptide sequence: VLEAGEGQL, peptide start residue: 122) (UniProt Q96GU1)	-0.113
RPS6KC1 (peptide sequence: RNPEDVQEIIVWK, peptide start residue: 40) (UniProt Q96S38)	-0.459
STRBP (peptide sequence: VILTSPLIRDELEKK, peptide start residue: 162) (UniProt Q96SI9)	0.167
TBCB (peptide sequence: IHVIDHSGAR, peptide start residue: 85) (UniProt Q99426)	1.11
UniProt Q96MK2 (peptide sequence: RLGQLQPLPQTLR, peptide start residue: 810)	-0.621
SNF8 (peptide sequence: GVGAGAIAKK, peptide start residue: 5) (UniProt Q96H20)	0.326
YTHDC1 (peptide sequence: SAHLTNPWNEHKPVK, peptide start residue: 458) (UniProt Q96MU7)	0.387
USP47 (peptide sequence: FLEVDEYPEHIK, peptide start residue: 572) (UniProt Q96K76)	0.29

Looked up one by one from the entries so far (two):
Target	log2 fold change
RPS6KC1 (peptide sequence: RNPEDVQEIIVWK, peptide start residue: 40) (UniProt Q96S38)	-0.459
NEURL4 (peptide sequence: TALRPHATDDFNHGVVLSSR, peptide start residue: 539) (UniProt Q96JN8)	-0.438
